# From patent US20080281526A1, “Methods For Molecular Toxicology Modeling” (priority 2004, published 2008)
# System: rat liver tissue
# Conditions: in vivo
# Method: From the nucleic acid hybridization data, a prediction score is calculated for that sample and compared to a reference score from a toxicity reference database according to the following equation. The sample prediction score=ΣwiR^FC^i. “i” is the index number for each gene in a gene expression profile to be evaluated. “wi” is the PLS weight (or PLS score, see Table 2 for an exemplary list of PLS scores for a general kidney toxicity model) for each gene. “R^FC^i” is the RMA fold-change value for the i^th gene, as determined from a normalized RMA matrix of gene expression data from the sample (described above). The PLS weight multiplied by the RMA fold-change value gives a gene regulation score for each gene, and the regulation scores for all the individual genes are added to give a prediction score for the sample.
# To establish a toxicity prediction score cut-off value for a toxicity model, the true-positive and false positive rates for each possible score cut-off value are computed, using the scores from all tox and non-tox samples in the training set. […]
# The 100 training samples were used to train the weights in the conversion algorithm. This step is important because it provides for the quantitative aspect of the conversion. […]
# Test samples were evaluated using the trained conversion algorithm. […]
smiles,measurement,value
"CCCCc1oc2ccccc2c1C(=O)c1cc(I)c(OCCN(CC)CC)c(I)c1 [Amiodarone, amiodarone]",number of test samples predicted as toxic out of the total number of samples for that compound,2/3
